Molecules are shown by their SMILES. Where “and” joins values, the source holds several entries; their conditions need not be identical. Identical values can stand only once. This is one part of the list. Repeats in this data set agree poorly, so a single value says little.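 Fusion between ACE2-bearing and full-length-spike-bearing U2OS cells was measured by imaging as the percentage of nuclei with both cell types' fluorescent markers. An inhibitory hit is a non-toxic compound whose fusion z-score is below -3, more than three standard deviations beneath the plate's DMSO wells.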

Data on 48 compounds can be found in the supplement of paper PMC8104966.

In this experiment the test system is U2OS ACE2 x SARS-CoV-2 spike co-culture. The experiment can be described thus: cell-cell fusion (fraction fused) z-score vs plate DMSO control; higher = more fusion. The conditions noted are these: 30 µM; 5 h; toxicity class: non-toxic, passed QC.
For the compound `CCOC(=S)SSC(=S)OCC`, the “cell-cell fusion (z-score)” value is inactive: 3.4. Turning to `c1ccc2c(c1)CC(N1CCN(c3cccc4c3OCCO4)CC1)C2`, the “cell-cell fusion (z-score)” value is inactive: 2.06. On to `C[C@H](NC(=O)/C(C#N)=C/c1cccc(Br)n1)c1ccccc1`, for which the “cell-cell fusion (z-score)” value was inactive: -1.28.

Take `CC(c1cc2ccccc2s1)N(O)C(N)=O` (stereo not drawn): the “cell-cell fusion (z-score)” value was inactive: 2.31.

As to `C[C@]12CCC3C(CC[C@]4(O)C[C@@H](O)CC[C@]34C=O)[C@@]1(O)CCC2C1=CC(=O)OC1` (stereo partly drawn), the “cell-cell fusion (z-score)” value is inactive: 0.625.

Turning to `C[C@H](N[C@@H](CCc1ccccc1)C(=O)O)C(=O)N1Cc2ccccc2C[C@H]1C(=O)O`, the “cell-cell fusion (z-score)” value was inactive: 2.32. The same measure for `Cc1cc(NS(=O)(=O)c2ccc(N)cc2)no1`: inactive: 1.98. In the case of `CC(C(=O)O)c1ccc(C(=O)c2cccs2)cc1` (stereo not drawn) [Suprofen], the “cell-cell fusion (z-score)” value is inactive: 1.65. As to `COc1cc(C(=O)NCc2ccc(OCCN(C)C)cc2)cc(OC)c1OC.Cl` [Trimethobenzamide hydrochloride], the “cell-cell fusion (z-score)” value is inactive: 1.47. Turning to `CCOC(=O)C(Cc1ccc(O)cc1)NC(C)=O` (stereo not drawn), the “cell-cell fusion (z-score)” value was inactive: 2.99. For the compound `C[C@@H]1CCN(C(=O)CC#N)C[C@@H]1N(C)c1ncnc2[nH]ccc12` [Tofacitinib], the “cell-cell fusion (z-score)” value was inactive: -0.0526. For `CC1CCc2cc(F)cc3c(=O)c(C(=O)O)cn1c23` (stereo not drawn), the “cell-cell fusion (z-score)” value is inactive: 0.449.

`O=C(c1ccc(Br)cc1)N1CC2C3CCC(O3)C2C1` (stereo not drawn) [Pseudocantharidin C]: the “cell-cell fusion (z-score)” value is inactive: 1.97. Take `COc1ccc2c(c1)OC/C(=C\c1ccc(OC)c(O)c1)C2=O`: the “cell-cell fusion (z-score)” value was inactive: -0.198. Then `CS(=O)(=O)O.Cc1ccc(N(CC2=NCCN2)c2cccc(O)c2)cc1` [Phentolamine mesilate], with inactive: 2.04.

Turning to `COC(=O)/C=C/C(=O)OC`, the “cell-cell fusion (z-score)” value is inactive: 1.65. Take `O=c1[nH]c2cc(Cl)ccc2c(O)c1-c1ccc(Oc2ccccc2)cc1`: the “cell-cell fusion (z-score)” value was inactive: 1.62. With `O=C(O)/C=C/c1ccccc1`, the “cell-cell fusion (z-score)” value was inactive: 2.47. For `NCCS(=O)(=O)O` [Taurine], the “cell-cell fusion (z-score)” value was inactive: 1.2. As to `COC(=O)[C@H]1[C@H]2C[C@H]3c4[nH]c5ccccc5c4CCN3C[C@H]2CC[C@@H]1O.Cl` [Rauwolscine hydrochloride], the “cell-cell fusion (z-score)” value is inactive: 1.7. As to `CN1CCCN=C1COC(=O)C(O)(c1ccccc1)C1CCCCC1.Cl` (stereo not drawn), the “cell-cell fusion (z-score)” value is inactive: 3.62.

With `CCn1ccnc1CC1COc2ccccc2O1.Cl` (stereo not drawn) [Imiloxan hydrochloride], the “cell-cell fusion (z-score)” value is inactive: 1.92. The same measure for `Cl.c1ccc(CC2=NCCN2)cc1` [Tolazoline hydrochloride]: inactive: 1.06; for `COC(=O)C[C@H]1C(C)(C)C(=O)[C@@H]2CC3=C(CC[C@]4(C)C3=CC(=O)O[C@H]4c3ccoc3)[C@@]1(C)C2=O`: inactive: 2.93; for `CCN1CCC[C@H]1CNC(=O)c1c(O)c(Cl)cc(Cl)c1OC.O=C(O)C(O)C(O)C(=O)O` [S(+)-Raclopride L-tartrate]: inactive: 2.65. Turning to `CC(=O)c1c(C)c2cnc(Nc3ccc(N4CCNCC4)cn3)nc2n(C2CCCC2)c1=O.Cl`, the “cell-cell fusion (z-score)” value is inactive: -0.293 and inactive: -0.128. Then `N#Cc1ccc(NC(=O)Nc2ccccc2Br)c2[nH]nnc12`, with inactive: 0.269; and `Cc1ccc(O)c([C@H](CCN(C(C)C)C(C)C)c2ccccc2)c1.O=C(O)[C@H](O)[C@@H](O)C(=O)O` [Tolterodine tartrate], with inactive: 1.35; and `Cl.NC(CO)C(=O)NNCc1ccc(O)c(O)c1O` (stereo not drawn) [Benserazide hydrochloride], with inactive: 0.855. Consider `O=C(O)c1cc2cc(F)ccc2[nH]1`, for which the “cell-cell fusion (z-score)” value is inactive: 2.82. Then `O=C1CC2OCC=C3CN4CC[C@]56c7ccccc7N1C5[C@H]2[C@H]3CC46.O=S(=O)(O)O` (stereo partly drawn), with inactive: 2.72; and `CC1=C(CCC(O)=O)/C2=C/C3=N/C(=C\C4=C(C)C(C=C)=C(N4)/C=C4\N=C(\C=C\1/N\2)C(C=C)=C4C)/C(C)=C3CCC(O)=O` [Protoporphyrin IX disodium], with inactive: 1.26; and `CC(C[N+](C)(C)C)OC(N)=O.[Cl-]` (stereo not drawn) [Bethanechol chloride], with inactive: 0.971. Take `CCCOC(=O)c1c(-c2ccccc2)nc(CC)c(C(=O)SCC)c1CCC`: the “cell-cell fusion (z-score)” value was inactive: 3.03. Take `Nc1nc(-n2cc(C(=O)O)c(=O)c3cc(F)c(N4CC(O)C4)c(Cl)c32)c(F)cc1F` [Delafloxacin]: the “cell-cell fusion (z-score)” value was inactive: 0.366. Take `CC(=O)O[C@H]1CC[C@@]2(C)C(=CCC3C2CC[C@]2(C)C(=O)CCC32)C1` (stereo partly drawn): the “cell-cell fusion (z-score)” value is inactive: 2.79. On to `O=C1CN(/N=C/c2ccc(-c3ccc([N+](=O)[O-])cc3)o2)C(=O)[N-]1.[Na+]` [Dantrolene sodium], for which the “cell-cell fusion (z-score)” value is inactive: 0.85. For `CC(C(=O)O)c1ccc(-c2ccccc2)c(F)c1` (stereo not drawn) [Flurbiprofen], the “cell-cell fusion (z-score)” value is inactive: 3.57. For `O=C1N=C([O-])NC1(c1ccccc1)c1ccccc1.[Na+]` [Phenytoin sodium], the “cell-cell fusion (z-score)” value is inactive: 2.04. Regarding `CC(=O)O[C@]1(C(C)=O)CC[C@H]2[C@@H]3CCC4=CC(=O)CCC4=C3[C@@H](c3ccc(N(C)C)cc3)C[C@@]21C` [Ulipristal acetate], the “cell-cell fusion (z-score)” value was inactive: -1.32. With `CC(C(=O)O)c1ccc2c(c1)[nH]c1ccc(Cl)cc12` (stereo not drawn) [Carprofen], the “cell-cell fusion (z-score)” value is inactive: 1.53.

Take `COC1CC2CCC(C)C(O)(O2)C(=O)C(=O)N2CCCCC2C(=O)OC(C(C)CC2CCC(O)C(OC)C2)CC(=O)C(C)/C=C(\C)C(O)C(OC)C(=O)C(C)CC(C)/C=C/C=C/C=C/1C` (stereo not drawn): the “cell-cell fusion (z-score)” value is inactive: 4.27. Take `O=C(O)/C=C(\CC(=O)O)C(=O)O`: the “cell-cell fusion (z-score)” value was inactive: 2.39.

Turning to `C[C@]12CCC3[C@@H](CC[C@@]45O[C@@H]4C(O)=C(C#N)C[C@]35C)C1CC[C@@H]2O` (stereo partly drawn), the “cell-cell fusion (z-score)” value is inactive: 2.12.

In the case of `C[C@]1(Cn2ccnn2)[C@H](C(=O)O)N2C(=O)C[C@H]2S1(=O)=O` [Tazobactam acid], the “cell-cell fusion (z-score)” value is inactive: 2.16. As for `C#CCN[C@@H]1CCc2ccccc21`, the “cell-cell fusion (z-score)” value was inactive: 3.56. As to `N#Cc1ccc([C@H]2CCCC[C@H]2O)cc1C(F)(F)F`, the “cell-cell fusion (z-score)” value is inactive: 3.01. Then `COC(C)(C)CCC[C@H](C)C/C=C/C(C)=C/C(=O)OC(C)C`, with inactive: -0.635.
